Data published in publication PMC5704011.
These are yes or no findings as the source states them, for the method shown.

Sequences of proteins named here, by UniProt entry; tags and fusion partners are left off. Residues count along the entry.
UniProt P17948, residues 27-758: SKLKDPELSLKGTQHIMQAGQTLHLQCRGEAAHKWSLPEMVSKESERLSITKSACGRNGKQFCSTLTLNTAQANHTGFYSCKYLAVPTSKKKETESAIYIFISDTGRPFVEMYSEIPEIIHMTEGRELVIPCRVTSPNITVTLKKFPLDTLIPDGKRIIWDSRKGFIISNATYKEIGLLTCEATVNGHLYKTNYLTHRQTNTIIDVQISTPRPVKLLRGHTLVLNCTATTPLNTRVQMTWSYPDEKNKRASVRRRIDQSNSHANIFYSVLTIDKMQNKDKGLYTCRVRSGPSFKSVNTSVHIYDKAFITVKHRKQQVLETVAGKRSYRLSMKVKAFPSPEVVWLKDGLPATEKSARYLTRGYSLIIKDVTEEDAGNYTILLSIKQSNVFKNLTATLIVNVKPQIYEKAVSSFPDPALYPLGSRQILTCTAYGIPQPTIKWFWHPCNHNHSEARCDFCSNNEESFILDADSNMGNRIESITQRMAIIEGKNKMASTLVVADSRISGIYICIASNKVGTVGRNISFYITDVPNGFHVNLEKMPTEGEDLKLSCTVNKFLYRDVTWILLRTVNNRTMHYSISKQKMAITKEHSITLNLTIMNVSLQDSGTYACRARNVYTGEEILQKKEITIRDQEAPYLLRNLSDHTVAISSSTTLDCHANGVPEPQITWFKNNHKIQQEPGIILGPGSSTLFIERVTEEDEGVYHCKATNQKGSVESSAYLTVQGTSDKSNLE
UniProt P35916, residues 25-775: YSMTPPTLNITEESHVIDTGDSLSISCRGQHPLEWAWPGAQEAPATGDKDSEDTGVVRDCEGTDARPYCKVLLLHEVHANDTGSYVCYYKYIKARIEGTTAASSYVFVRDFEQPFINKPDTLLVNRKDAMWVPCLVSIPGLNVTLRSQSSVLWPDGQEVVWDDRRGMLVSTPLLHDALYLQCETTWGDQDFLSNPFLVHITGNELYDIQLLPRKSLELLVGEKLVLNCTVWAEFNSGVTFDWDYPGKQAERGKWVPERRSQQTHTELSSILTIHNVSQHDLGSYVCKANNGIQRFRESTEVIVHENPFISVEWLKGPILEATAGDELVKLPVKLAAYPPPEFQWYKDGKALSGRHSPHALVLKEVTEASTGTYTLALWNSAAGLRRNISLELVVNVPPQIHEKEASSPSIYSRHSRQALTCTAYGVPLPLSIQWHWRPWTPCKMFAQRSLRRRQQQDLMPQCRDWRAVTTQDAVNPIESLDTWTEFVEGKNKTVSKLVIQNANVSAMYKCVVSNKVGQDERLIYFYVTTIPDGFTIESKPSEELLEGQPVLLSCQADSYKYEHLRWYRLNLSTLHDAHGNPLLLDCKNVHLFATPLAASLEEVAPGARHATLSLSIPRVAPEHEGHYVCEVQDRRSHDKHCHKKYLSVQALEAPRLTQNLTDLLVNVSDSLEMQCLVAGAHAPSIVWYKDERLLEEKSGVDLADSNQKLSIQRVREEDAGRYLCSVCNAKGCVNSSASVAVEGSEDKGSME
UniProt P01127, residues 82-190: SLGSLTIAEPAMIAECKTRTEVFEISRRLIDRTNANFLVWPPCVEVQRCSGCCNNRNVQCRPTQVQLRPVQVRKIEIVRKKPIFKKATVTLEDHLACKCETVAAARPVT

Key:
VEGFR1 (Homo sapiens) [1] = target: VEGFR1 (Homo sapiens) (UniProt P17948); experiment: SPR; BIAcore 3000, 25 °C, CM5 chip; receptor immobilised by amine coupling (~200-500 R.U.); ligand injected at 10, 20 and 40 nM, 30 uL/min, 10 min dissociation; HBS-EP pH 7.4 (10 mM HEPES, 3 mM EDTA, 150 mM NaCl, 0.005% TWEEN-20); angiopoietin-4 reference cell subtracted; global 1:1 Langmuir fit; χ2-to-Rmax > 1.0 or negative association curves taken as no true interaction; both purified
[2] = target: human recombinant VEGFR3 (human) (UniProt P35916); experiment: as above
VEGFR1 (Homo sapiens) [3] = target: VEGFR1 (Homo sapiens) (UniProt P17948); experiment: SPR; BIAcore 3000, 25 °C, CM5 chip; receptor immobilised by amine coupling (~200-500 R.U.); ligand injected at 40, 20 and 10 nM in HBS-EP pH 7.4 (10 mM HEPES, 3 mM EDTA, 150 mM NaCl, 0.005% TWEEN-20); angiopoietin-4 reference cell subtracted; global 1:1 Langmuir fit; χ^2-to-Rmax < 1.0 taken as a true interaction; both purified
[4] = target: human recombinant VEGFR3 (human) (UniProt P35916); experiment: as above

binding (VEGFR1 (Homo sapiens) [3]) | binding [4] | Substance | binding (VEGFR1 (Homo sapiens) [1]) | binding [2]
no binding (tested: 40 nM) | no binding (tested: 40 nM) | human recombinant PDGF-BB (from UniProt P01127 82-190) (ligand) | no binding (tested: 10, 20 and 40 nM tested) | no binding (tested: 10, 20 and 40 nM tested)
no binding (tested: 40 nM) | no binding (tested: 40 nM) | human recombinant PDGF-AB (from UniProt P04085 87-211; P01127 82-190) (ligand) | no binding (tested: 10, 20 and 40 nM tested) | no binding (tested: 10, 20 and 40 nM tested)
no binding (tested: 40 nM) | no binding (tested: 40 nM) | human recombinant PDGF-AA (from UniProt P04085 87-211) (ligand) | no binding (tested: 10, 20 and 40 nM tested) | no binding (tested: 10, 20 and 40 nM tested)
